The reference is the same well before dosing, and untreated signal decays as well.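 Fibroblast labels denote human fibroblasts, mainly primary ones from uterus (C12385, HUF), lung (H6013), bone (Hs27A), adrenal (HADF) and skin (WS1), plus mammary HMF and breast cancer-associated Hs343T. Cancer cells are basal-like or mesenchymal-like triple-negative breast cancer lines. A hit is a response shift exceeding 3x replicate standard deviation. The tissue of the other fibroblasts is not given here.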
Test system: Hs578T
Assay: relative JC-1 red fluorescence (viability) vs pre-drug, coculture with fibroblast (fraction); higher = more viable cancer cells
Procedure: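 JC-1 labelled TNBC cells cocultured 1:1 (1,500 cells each) with CellTrace Violet stained primary or stromal fibroblasts in 384-well plates in FluoroBrite medium, treated with one of 42 anticancer drugs at 0.1, 1, 10 or 100 uM. JC-1 red fluorescence (mitochondrial integrity in cancer cells only) was read by plate reader every 8 h for 72 h. Values are normalised to each well's pre-drug value. The stock of one drug was tenfold lower, so its dose labels may be too high.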

O=C(O)C(=O)O.[NH-][C@@H]1CCCC[C@H]1[NH-].[Pt+2] [Oxaliplatin]
relative JC-1 red fluorescence
Conditions | 8 h | 16 h | 24 h | 32 h | 40 h | 48 h | 56 h | 64 h | 72 h
10 µM | 0.938 | 0.835 | 0.75 | 0.694 | 0.6259 | 0.577 | 0.552 | 0.509 | 0.489
100 µM | 0.954 | 0.839 | 0.7846 | 0.754 | 0.689 | 0.646 | 0.625 | 0.584 | 0.573

relative JC-1 red fluorescence
Conditions | 8 h | 16 h | 24 h | 32 h | 40 h | 48 h | 56 h | 64 h | 72 h
10 µM, coculture fibroblast: C12385 | 0.8065 | 0.734 | 0.662 | 0.57 | 0.504 | 0.466 | 0.43 | 0.405 | 0.39
10 µM, coculture fibroblast: H6013 | 0.835 | 0.787 | 0.728 | 0.691 | 0.646 | 0.626 | 0.597 | 0.583 | 0.555
10 µM, coculture fibroblast: H6019 | 0.7665 | 0.678 | 0.644 | 0.565 | 0.525 | 0.497 | 0.464 | 0.442 | 0.421
10 µM, coculture fibroblast: H6076 | 0.889 | 0.837 | 0.805 | 0.8004 | 0.769 | 0.774 | 0.757 | 0.757 | 0.754
10 µM, coculture fibroblast: H6231 | 0.895 | 0.777 | 0.734 | 0.687 | 0.618 | 0.587 | 0.545 | 0.523 | 0.5
10 µM, coculture fibroblast: HADF | 0.848 | 0.792 | 0.7067 | 0.64 | 0.597 | 0.567 | 0.53 | 0.51 | 0.469
10 µM, coculture fibroblast: HCFa | 0.833 | 0.768 | 0.696 | 0.613 | 0.537 | 0.499 | 0.464 | 0.438 | 0.399
10 µM, coculture fibroblast: HCPF | 0.914 | 0.8443 | 0.801 | 0.755 | 0.688 | 0.657 | 0.631 | 0.596 | 0.564
10 µM, coculture fibroblast: HHSteC | 0.845 | 0.772 | 0.698 | 0.652 | 0.599 | 0.566 | 0.544 | 0.522 | 0.496
10 µM, coculture fibroblast: HMF | 0.916 | 0.86 | 0.809 | 0.784 | 0.721 | 0.7023 | 0.6634 | 0.634 | 0.614
10 µM, coculture fibroblast: HPFa | 0.929 | 0.842 | 0.765 | 0.706 | 0.647 | 0.609 | 0.565 | 0.544 | 0.501
10 µM, coculture fibroblast: HUF | 0.8518 | 0.754 | 0.743 | 0.643 | 0.584 | 0.55 | 0.518 | 0.51 | 0.49
10 µM, coculture fibroblast: Hs27A | 0.9256 | 0.8373 | 0.8131 | 0.7827 | 0.741 | 0.738 | 0.706 | 0.692 | 0.643
10 µM, coculture fibroblast: Hs343T | 0.9535 | 0.847 | 0.77 | 0.741 | 0.65 | 0.611 | 0.558 | 0.5244 | 0.5022
10 µM, coculture fibroblast: WS1 | 0.812 | 0.707 | 0.654 | 0.547 | 0.478 | 0.448 | 0.417 | 0.402 | 0.386
100 µM, coculture fibroblast: C12385 | 0.867 | 0.74996 | 0.679 | 0.599 | 0.535 | 0.501 | 0.469 | 0.452 | 0.434
100 µM, coculture fibroblast: H6013 | 0.9333 | 0.868 | 0.8135 | 0.784 | 0.723 | 0.688 | 0.6482 | 0.6217 | 0.589
100 µM, coculture fibroblast: H6019 | 0.81 | 0.707 | 0.644 | 0.543 | 0.481 | 0.446 | 0.413 | 0.391 | 0.3633
100 µM, coculture fibroblast: H6076 | 0.956 | 0.833 | 0.792 | 0.744 | 0.691 | 0.676 | 0.639 | 0.604 | 0.5867
100 µM, coculture fibroblast: H6231 | 0.933 | 0.881 | 0.807 | 0.757 | 0.704 | 0.678 | 0.635 | 0.613 | 0.593
100 µM, coculture fibroblast: HADF | 0.9433 | 0.869 | 0.804 | 0.7578 | 0.714 | 0.681 | 0.6377 | 0.6254 | 0.591
100 µM, coculture fibroblast: HCFa | 0.9415 | 0.887 | 0.863 | 0.8271 | 0.788 | 0.774 | 0.741 | 0.728 | 0.698
100 µM, coculture fibroblast: HCPF | 0.88 | 0.915 | 0.859 | 0.818 | 0.769 | 0.747 | 0.726 | 0.681 | 0.649
100 µM, coculture fibroblast: HHSteC | 0.904 | 0.792 | 0.749 | 0.718 | 0.671 | 0.635 | 0.614 | 0.587 | 0.553
100 µM, coculture fibroblast: HMF | 0.919 | 0.815 | 0.77 | 0.7345 | 0.677 | 0.6484 | 0.621 | 0.593 | 0.569
100 µM, coculture fibroblast: HPFa | 0.883 | 0.845 | 0.805 | 0.763 | 0.737 | 0.708 | 0.666 | 0.648 | 0.616
100 µM, coculture fibroblast: HUF | 0.8967 | 0.769 | 0.7278 | 0.631 | 0.564 | 0.523 | 0.483 | 0.463 | 0.445
100 µM, coculture fibroblast: Hs27A | 0.907 | 0.863 | 0.806 | 0.773 | 0.73 | 0.715 | 0.683 | 0.682 | 0.634
100 µM, coculture fibroblast: Hs343T | 0.93 | 0.8065 | 0.773 | 0.745 | 0.694 | 0.673 | 0.641 | 0.616 | 0.609
100 µM, coculture fibroblast: WS1 | 0.87324 | 0.765 | 0.682 | 0.601 | 0.539 | 0.517 | 0.479 | 0.459 | 0.446
